PubChem BioAssay AID686938 | Drosophila RNAi Screening Center | 2013
Test: 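Looking for CRAC channel components and the factors controlling them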 (primary screen). System: Drosophila S2R+ cells. Reagent: long dsRNA against Drosophila genes, about 0.25 µg dsRNA per well, roughly 10,000 cells. Timing: 5 days of knock-down before the calcium assay. Conditions: thapsigargin (SERCA pump blocker) to empty calcium stores; entry signal taken 4 min after adding it. Detection: 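Duplicate raw fluo-4 intensities per well from a plate reader, at rest and four minutes after thapsigargin emptied calcium stores; entry-to-rest ratio filled for only some wells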. Direction: calcium entry signal: higher = stronger calcium signal after store depletion; resting calcium signal: higher = higher resting calcium signal. Units: calcium entry signal in fluorescence units; resting calcium signal in fluorescence units. Call rule: 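Called when the plate z-score of the entry-to-rest ratio, mean of duplicates, falls below −3; wells with low overall dye signal (Fmax z below −2) or more than five off-targets excluded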. Calls: active = strongly reduced calcium entry; inactive = no strong reduction.
The deposit covers about 23,000 reagents; this is an unselected part of those that have a named target and a result. Of all reagents, 75 (0.33%) were called active. 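Raw plate signals without normalisation; calls rest on plate z-scores that were not deposited; ratio present for only 364 wells.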 Unmarked entries are inactive. The numbers tell different reagents against one gene apart. Not given: the dose of the treatment.

CG1582 scored calcium entry signal, replicate 1 = 2.40e7; calcium entry signal, replicate 2 = 3.35e7; resting calcium signal, replicate 1 = 1.11e7; resting calcium signal, replicate 2 = 1.56e7. Knock-down of Cyp4g1 came out at: calcium entry signal, replicate 1 = 3.43e7; calcium entry signal, replicate 2 = 4.26e7; resting calcium signal, replicate 1 = 1.67e7; resting calcium signal, replicate 2 = 1.94e7. Depletion of Ser8 gave: calcium entry signal, replicate 1 = 3.14e7; calcium entry signal, replicate 2 = 3.97e7; resting calcium signal, replicate 1 = 1.67e7; resting calcium signal, replicate 2 = 1.82e7. Against fwe #1, the entry reads calcium entry signal, replicate 1 = 3.67e7; calcium entry signal, replicate 2 = 2.84e7; resting calcium signal, replicate 1 = 1.73e7; resting calcium signal, replicate 2 = 1.42e7. Depletion of fwe #2 resulted in: calcium entry signal, replicate 1 = 4.73e7; calcium entry signal, replicate 2 = 5.84e7; resting calcium signal, replicate 1 = 2.10e7; resting calcium signal, replicate 2 = 3.77e7. fwe #3 gave calcium entry signal, replicate 1 = 4.09e7; calcium entry signal, replicate 2 = 3.90e7; resting calcium signal, replicate 1 = 2.28e7; resting calcium signal, replicate 2 = 1.79e7.

lt showed calcium entry signal, replicate 1 = 4.69e7; calcium entry signal, replicate 2 = 4.74e7; resting calcium signal, replicate 1 = 2.33e7; resting calcium signal, replicate 2 = 2.25e7.

In a second layout: entries from further up.
{"target": "fwe", "dsRNA no.": 3, "calcium entry signal, replicate 1": 4.09e7, "calcium entry signal, replicate 2": 3.90e7, "resting calcium signal, replicate 1": 2.28e7, "resting calcium signal, replicate 2": 1.79e7}
{"target": "lt", "dsRNA no.": 1, "calcium entry signal, replicate 1": 4.69e7, "calcium entry signal, replicate 2": 4.74e7, "resting calcium signal, replicate 1": 2.33e7, "resting calcium signal, replicate 2": 2.25e7}

Continued:
After knock-down of mtd #1 the results were calcium entry signal, replicate 1 = 2.55e7; calcium entry signal, replicate 2 = 3.58e7; resting calcium signal, replicate 1 = 1.20e7; resting calcium signal, replicate 2 = 1.58e7. mtd #2 gave calcium entry signal, replicate 1 = 2.80e7; calcium entry signal, replicate 2 = 3.68e7; resting calcium signal, replicate 1 = 1.24e7; resting calcium signal, replicate 2 = 1.52e7. Against mtd #3 the deposit lists calcium entry signal, replicate 1 = 4.06e7; calcium entry signal, replicate 2 = 3.93e7; resting calcium signal, replicate 1 = 2.07e7; resting calcium signal, replicate 2 = 1.89e7. Knock-down of CG31191 #1 gave: calcium entry signal, replicate 1 = 3.19e7; calcium entry signal, replicate 2 = 3.68e7; resting calcium signal, replicate 1 = 1.61e7; resting calcium signal, replicate 2 = 1.72e7. CG31191 #2 gave calcium entry signal, replicate 1 = 3.46e7; calcium entry signal, replicate 2 = 4.94e7; resting calcium signal, replicate 1 = 6.68e7; resting calcium signal, replicate 2 = 2.17e7. Knock-down of CG31191 #3 gave: calcium entry signal, replicate 1 = 3.99e7; calcium entry signal, replicate 2 = 5.17e7; resting calcium signal, replicate 1 = 5.49e7; resting calcium signal, replicate 2 = 2.28e7.

After knock-down of CG30385 the results were calcium entry signal, replicate 1 = 3.33e7; calcium entry signal, replicate 2 = 3.46e7; resting calcium signal, replicate 1 = 1.48e7; resting calcium signal, replicate 2 = 1.44e7.
